Measured values reported in article PMC11518989.

Chains of the proteins cited; added tags and fusions are not shown. Lines headed by an entry give the natural chain unless they say otherwise; changes in a name come on top.
UniProt Q9H8M2: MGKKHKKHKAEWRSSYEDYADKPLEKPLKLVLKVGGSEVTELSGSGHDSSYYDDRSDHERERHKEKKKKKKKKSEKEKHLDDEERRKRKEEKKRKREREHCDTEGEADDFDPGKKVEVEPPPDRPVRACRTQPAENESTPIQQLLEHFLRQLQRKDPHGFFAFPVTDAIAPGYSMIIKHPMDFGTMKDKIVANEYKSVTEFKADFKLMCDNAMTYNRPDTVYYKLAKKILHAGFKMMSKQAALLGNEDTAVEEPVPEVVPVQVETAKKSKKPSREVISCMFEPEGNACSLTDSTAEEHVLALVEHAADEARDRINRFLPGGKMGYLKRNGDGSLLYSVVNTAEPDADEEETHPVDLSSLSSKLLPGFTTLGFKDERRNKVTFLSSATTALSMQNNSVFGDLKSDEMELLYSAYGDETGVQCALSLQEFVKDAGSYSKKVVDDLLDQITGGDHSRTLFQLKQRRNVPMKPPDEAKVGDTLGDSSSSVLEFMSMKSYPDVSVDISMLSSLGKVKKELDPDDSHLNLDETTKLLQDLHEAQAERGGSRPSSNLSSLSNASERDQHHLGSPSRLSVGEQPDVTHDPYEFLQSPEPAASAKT
UniProt Q9NZM4: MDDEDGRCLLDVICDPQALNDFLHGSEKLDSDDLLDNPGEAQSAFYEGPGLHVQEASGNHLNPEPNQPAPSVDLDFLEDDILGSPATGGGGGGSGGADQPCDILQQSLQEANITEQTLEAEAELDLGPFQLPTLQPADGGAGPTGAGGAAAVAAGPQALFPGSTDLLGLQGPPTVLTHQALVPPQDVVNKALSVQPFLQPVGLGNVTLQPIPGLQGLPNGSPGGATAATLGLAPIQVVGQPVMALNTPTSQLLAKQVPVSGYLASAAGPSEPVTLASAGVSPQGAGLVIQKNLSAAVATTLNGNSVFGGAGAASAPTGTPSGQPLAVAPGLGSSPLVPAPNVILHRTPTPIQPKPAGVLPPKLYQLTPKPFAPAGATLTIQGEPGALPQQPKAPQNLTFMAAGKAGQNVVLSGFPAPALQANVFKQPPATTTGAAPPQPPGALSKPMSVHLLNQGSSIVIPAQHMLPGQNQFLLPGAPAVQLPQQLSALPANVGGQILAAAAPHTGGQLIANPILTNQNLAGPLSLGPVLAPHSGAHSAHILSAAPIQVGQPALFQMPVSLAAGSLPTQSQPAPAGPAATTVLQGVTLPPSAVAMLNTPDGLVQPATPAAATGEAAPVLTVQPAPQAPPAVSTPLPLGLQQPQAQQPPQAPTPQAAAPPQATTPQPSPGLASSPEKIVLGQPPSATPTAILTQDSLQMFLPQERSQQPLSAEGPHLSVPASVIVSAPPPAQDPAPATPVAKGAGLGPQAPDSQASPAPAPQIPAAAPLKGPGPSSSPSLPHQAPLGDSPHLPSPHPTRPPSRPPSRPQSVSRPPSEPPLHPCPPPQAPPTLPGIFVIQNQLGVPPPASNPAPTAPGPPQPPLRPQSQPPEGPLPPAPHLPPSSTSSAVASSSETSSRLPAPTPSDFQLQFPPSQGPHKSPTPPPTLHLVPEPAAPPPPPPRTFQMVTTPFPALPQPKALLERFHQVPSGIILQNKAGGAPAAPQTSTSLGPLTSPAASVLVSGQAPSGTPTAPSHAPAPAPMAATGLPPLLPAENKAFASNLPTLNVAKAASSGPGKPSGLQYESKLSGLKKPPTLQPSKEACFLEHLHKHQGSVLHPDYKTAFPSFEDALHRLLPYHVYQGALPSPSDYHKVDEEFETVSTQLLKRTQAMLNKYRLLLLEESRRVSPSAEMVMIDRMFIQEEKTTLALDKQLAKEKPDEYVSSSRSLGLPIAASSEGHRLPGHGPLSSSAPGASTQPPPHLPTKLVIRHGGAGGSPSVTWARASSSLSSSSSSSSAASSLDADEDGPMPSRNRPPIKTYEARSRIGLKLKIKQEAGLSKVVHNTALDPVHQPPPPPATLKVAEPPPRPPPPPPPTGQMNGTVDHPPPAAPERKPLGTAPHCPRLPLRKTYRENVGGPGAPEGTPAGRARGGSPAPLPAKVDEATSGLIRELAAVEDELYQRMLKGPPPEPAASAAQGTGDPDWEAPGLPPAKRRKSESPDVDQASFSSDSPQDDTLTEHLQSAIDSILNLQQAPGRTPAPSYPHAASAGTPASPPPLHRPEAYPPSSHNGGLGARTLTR
UniProt Q3L8U1: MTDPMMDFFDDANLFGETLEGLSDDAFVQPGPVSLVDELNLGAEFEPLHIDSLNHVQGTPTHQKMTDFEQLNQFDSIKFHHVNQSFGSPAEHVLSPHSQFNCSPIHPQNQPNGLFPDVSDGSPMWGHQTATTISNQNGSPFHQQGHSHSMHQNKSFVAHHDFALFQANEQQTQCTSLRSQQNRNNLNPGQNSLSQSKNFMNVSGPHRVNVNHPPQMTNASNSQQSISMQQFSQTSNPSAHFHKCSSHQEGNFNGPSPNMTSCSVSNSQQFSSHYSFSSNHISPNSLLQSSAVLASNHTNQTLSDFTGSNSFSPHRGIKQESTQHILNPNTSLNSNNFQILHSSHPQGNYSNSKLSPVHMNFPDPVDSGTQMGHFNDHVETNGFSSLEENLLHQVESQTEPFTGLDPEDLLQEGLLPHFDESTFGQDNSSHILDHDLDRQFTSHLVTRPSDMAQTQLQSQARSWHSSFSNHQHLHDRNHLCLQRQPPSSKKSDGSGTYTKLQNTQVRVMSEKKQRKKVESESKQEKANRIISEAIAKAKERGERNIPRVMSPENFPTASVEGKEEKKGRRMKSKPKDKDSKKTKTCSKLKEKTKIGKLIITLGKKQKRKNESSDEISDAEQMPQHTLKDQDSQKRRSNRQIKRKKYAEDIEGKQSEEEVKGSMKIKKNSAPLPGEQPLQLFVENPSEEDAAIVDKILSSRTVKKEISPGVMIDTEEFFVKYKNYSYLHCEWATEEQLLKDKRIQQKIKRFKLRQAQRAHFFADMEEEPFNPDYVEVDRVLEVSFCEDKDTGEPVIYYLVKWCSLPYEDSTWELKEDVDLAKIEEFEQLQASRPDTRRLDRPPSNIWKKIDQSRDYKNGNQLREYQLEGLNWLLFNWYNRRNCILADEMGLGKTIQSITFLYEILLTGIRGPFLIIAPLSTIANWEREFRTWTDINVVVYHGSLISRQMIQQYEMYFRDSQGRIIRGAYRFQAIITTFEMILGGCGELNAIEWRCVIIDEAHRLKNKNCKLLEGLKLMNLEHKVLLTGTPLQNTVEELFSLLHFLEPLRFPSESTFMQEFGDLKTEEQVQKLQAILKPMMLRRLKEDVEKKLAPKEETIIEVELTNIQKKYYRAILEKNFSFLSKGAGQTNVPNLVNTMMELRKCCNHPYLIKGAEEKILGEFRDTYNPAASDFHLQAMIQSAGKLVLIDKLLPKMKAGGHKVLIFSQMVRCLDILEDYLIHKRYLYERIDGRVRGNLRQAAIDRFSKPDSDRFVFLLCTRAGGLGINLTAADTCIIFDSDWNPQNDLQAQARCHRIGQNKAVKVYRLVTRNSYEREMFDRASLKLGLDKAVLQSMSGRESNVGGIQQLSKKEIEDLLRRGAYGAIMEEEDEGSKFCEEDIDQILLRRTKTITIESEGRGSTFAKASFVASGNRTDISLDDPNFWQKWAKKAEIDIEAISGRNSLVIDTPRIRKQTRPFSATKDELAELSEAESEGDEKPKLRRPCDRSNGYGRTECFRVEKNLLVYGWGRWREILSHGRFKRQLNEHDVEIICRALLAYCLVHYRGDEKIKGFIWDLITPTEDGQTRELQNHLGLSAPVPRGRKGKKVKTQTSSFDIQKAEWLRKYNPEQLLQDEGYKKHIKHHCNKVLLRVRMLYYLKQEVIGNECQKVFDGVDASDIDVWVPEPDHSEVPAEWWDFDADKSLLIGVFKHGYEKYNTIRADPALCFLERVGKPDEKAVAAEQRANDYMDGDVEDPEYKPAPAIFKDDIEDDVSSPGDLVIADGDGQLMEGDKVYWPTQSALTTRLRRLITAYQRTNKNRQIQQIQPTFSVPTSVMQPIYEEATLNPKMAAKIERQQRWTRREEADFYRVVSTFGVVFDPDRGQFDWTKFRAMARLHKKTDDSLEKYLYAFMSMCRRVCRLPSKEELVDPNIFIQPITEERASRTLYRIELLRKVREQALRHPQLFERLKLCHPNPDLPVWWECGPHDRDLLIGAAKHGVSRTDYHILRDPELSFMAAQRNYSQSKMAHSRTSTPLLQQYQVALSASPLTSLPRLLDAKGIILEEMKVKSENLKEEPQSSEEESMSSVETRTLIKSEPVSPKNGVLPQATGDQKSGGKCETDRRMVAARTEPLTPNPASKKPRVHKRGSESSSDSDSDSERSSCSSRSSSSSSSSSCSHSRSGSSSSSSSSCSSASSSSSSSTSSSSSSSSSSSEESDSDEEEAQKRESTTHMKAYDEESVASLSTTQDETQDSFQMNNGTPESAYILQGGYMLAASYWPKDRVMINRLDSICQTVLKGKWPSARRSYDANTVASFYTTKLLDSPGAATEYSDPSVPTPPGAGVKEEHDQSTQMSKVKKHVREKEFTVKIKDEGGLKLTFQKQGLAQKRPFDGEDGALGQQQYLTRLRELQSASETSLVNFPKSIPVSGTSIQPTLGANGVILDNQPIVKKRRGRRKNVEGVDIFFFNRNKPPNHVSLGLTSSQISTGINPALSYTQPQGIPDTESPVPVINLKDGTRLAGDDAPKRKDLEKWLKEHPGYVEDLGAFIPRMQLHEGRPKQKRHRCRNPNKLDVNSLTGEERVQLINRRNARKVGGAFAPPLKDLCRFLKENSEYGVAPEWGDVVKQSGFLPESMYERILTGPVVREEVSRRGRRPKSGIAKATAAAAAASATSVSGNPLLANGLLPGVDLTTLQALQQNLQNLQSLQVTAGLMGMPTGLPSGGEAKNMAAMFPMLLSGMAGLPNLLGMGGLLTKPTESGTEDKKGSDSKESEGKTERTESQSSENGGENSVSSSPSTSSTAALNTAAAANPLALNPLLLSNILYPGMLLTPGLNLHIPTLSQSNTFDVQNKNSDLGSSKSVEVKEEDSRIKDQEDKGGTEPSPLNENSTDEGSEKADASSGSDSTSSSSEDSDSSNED
UniProt Q92922: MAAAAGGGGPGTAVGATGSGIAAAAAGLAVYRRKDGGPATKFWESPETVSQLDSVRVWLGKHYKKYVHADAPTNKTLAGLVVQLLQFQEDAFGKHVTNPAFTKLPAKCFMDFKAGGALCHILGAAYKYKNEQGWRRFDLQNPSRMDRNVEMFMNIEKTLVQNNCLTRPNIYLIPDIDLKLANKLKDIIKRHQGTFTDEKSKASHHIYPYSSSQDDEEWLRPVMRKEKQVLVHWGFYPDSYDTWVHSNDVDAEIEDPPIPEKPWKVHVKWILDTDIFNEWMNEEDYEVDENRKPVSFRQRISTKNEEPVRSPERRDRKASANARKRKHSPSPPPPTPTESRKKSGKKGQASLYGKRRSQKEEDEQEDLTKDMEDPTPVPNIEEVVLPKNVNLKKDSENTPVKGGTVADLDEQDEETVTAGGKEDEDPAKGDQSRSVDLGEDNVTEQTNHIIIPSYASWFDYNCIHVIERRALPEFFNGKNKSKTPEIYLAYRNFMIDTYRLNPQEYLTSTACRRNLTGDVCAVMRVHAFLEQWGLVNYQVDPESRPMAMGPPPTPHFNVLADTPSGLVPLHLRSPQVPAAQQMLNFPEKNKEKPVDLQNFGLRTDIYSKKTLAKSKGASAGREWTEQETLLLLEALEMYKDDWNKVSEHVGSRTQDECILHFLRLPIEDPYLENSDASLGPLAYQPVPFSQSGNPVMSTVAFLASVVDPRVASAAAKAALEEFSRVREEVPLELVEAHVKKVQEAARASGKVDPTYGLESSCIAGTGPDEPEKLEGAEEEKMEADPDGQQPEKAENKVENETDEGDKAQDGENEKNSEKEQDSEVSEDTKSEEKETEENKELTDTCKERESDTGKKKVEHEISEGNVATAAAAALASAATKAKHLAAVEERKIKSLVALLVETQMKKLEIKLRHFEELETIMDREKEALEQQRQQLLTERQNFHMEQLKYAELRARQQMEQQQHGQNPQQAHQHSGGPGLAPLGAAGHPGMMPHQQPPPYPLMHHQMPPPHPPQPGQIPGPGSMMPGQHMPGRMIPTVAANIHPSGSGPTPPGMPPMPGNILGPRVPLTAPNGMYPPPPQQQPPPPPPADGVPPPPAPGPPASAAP

biological target: regular BRD9 isoform (Bromodomain Containing 9), FLAG-V5-tagged (human (cDNA of the MEC1 CLL cell line and an SF3B1-mutated CLL case)) (UniProt Q9H8M2); assay: affinity purification with mass spectrometry; V5-tag-based co-immunoprecipitation from nuclear extracts of HEK293T cell lines stably overexpressing the regular or alternative BRD9 isoform (control: FLAG-V5-tagged YFP), analysis by mass spectrometry

binding | Substance
binds | ASPM (from UniProt Q8IZT6 1-3477)
binds | BICRA (from UniProt Q9NZM4 1-1560)
binds | BRCA2 (from UniProt P51587 1-3418)
binds | CHD9 (from UniProt Q3L8U1 1-2897)
binds | SMARCA4 (from UniProt P51532 1-1647)
binds | SMARCC1 (from UniProt Q92922 1-1105)
binds | SPEN (from UniProt Q96T58 1-3664)

No constants are given. Whether binding was seen depends on the method and setting. Binding seen in cells or lysates may run through a third protein. Here binding means that the protein was enriched with, or labelled near, the bait; the list need not be complete.
